Test [1] deals with T1, NoxO1-BioID2 fusion construct (human) (UniProt Q8NFA2).
T1 sequence: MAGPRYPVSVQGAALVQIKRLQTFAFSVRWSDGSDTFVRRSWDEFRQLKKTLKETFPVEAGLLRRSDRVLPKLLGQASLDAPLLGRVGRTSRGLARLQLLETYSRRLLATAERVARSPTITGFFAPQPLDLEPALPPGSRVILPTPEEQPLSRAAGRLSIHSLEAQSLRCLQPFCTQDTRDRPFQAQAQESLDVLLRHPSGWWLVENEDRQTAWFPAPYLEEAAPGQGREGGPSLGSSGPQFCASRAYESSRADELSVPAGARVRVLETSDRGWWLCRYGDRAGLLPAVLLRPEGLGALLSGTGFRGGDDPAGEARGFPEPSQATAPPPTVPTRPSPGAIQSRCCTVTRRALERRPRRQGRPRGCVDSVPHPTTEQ
In words: proximity labelling; BioID: N- or C-terminal NoxO1-BioID2 fusion transiently overexpressed in Hek293 without Nox1 and NoxA1; 50 uM biotin 24 h; streptavidin C1 magnetic beads; GelC-MS2, label-free quantitation; BioID2 only as control.

By UniProt entry, the sequences of proteins in these tests, tags left out.
UniProt Q96RT1: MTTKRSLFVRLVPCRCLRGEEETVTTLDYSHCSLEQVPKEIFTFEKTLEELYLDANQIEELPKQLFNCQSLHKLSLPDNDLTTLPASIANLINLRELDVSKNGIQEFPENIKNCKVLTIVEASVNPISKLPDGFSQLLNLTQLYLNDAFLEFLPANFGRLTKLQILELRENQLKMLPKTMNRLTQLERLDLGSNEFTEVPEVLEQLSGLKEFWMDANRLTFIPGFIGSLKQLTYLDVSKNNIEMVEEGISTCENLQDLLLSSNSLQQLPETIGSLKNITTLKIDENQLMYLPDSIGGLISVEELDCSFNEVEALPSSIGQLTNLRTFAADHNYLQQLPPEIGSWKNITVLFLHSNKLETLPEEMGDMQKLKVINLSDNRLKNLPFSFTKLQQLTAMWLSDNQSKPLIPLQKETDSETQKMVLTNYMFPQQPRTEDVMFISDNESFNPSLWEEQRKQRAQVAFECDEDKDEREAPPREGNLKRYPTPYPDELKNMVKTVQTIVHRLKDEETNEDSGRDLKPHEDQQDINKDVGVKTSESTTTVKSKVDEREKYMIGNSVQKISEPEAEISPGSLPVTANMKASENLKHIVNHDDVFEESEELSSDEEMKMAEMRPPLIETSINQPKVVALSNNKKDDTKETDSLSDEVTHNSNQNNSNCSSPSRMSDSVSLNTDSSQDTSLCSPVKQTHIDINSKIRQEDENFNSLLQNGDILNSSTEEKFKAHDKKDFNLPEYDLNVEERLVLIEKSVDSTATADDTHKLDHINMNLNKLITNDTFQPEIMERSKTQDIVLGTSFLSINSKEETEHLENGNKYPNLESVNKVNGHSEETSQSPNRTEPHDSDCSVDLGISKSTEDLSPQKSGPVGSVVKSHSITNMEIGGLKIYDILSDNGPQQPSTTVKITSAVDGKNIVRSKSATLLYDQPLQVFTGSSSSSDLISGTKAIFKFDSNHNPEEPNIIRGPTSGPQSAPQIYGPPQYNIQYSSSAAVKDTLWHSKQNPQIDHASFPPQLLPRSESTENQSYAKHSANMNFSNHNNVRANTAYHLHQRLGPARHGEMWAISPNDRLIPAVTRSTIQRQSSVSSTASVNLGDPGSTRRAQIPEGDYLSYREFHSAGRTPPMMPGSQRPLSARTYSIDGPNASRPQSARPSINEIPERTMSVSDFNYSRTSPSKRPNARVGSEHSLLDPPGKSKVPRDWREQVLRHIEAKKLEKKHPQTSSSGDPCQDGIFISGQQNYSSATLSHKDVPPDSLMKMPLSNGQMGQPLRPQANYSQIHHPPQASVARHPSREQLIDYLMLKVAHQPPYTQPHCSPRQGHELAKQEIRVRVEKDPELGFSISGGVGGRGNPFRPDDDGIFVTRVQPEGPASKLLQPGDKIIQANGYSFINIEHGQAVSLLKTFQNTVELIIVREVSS

Test [2] deals with T1, NoxO1-BioID2 fusion construct (human). Briefly: proximity labelling; BioID: biotinylated proteins precipitated with streptavidin Dynabeads from Hek293 overexpressing NoxO1-BioID2 or empty vector; detection by Western blot.
Test [3] shares this target. Briefly: proximity labelling; BioID as a1, but with Nox1 and NoxA1 overexpressed together with NoxO1-BioID; read out by mass spectrometry.

Results are given in words; binding and its absence hold for the method and conditions named. Binding seen in cells or lysates may run through a third protein. Here binding means that the protein was enriched with, or labelled near, the bait; the list need not be complete. Where a sequence is shown, tags or fusion partners need not be part of it.

For “ErbB2 interacting protein (Erbin) (from UniProt Q96RT1 1-1412)”, the binding result in test [1] is given as “binds”.

Consider “Epidermal growth factor receptor (EGFR) (from UniProt P00533 25-1210)”, for which, in test [2], the binding result is reported as “binds”.

B1: NoxA1 (protein, UniProt Q86UR1 1-476)
chain: MASLGDLVRAWHLGAQAVDRGDWARALHLFSGVPAPPARLCFNAGCVHLLAGDPEAALRAFDQAVTKDTCMAVGFFQRGVANFQLARFQEALSDFWLALEQLRGHAAIDYTQLGLRFKLQAWEVLHNVASAQCQLGLWTEAASSLREAMSKWPEGSLNGLDSALDQVQRRGSLPPRQVPRGEVFRPHRWHLKHLEPVDFLGKAKVVASAIPDDQGWGVRPQQPQGPGANHDARSLIMDSPRAGTHQGPLDAETEVGADRCTSTAYQEQRPQVEQVGKQAPLSPGLPAMGGPGPGPCEDPAGAGGAGAGGSEPLVTVTVQCAFTVALRARRGADLSSLRALLGQALPHQAQLGQLSYLAPGEDGHWVPIPEEESLQRAWQDAAACPRGLQLQCRGAGGRPVLYQVVAQHSYSAQGPEDLGFRQGDTVDVLCEVDQAWLEGHCDGRIGIFPKCFVVPAGPRMSGAPGRLPRSQQGDQP
Take B1: in test [3], the binding result is “binds”.

The values above are taken from publication PMC11536020.
